Measured values reported in article PMC12270201.
These are yes or no findings as the source states them, for the method shown. In cells and extracts the contact can be indirect. Binding can be weak; no strength is given.

By UniProt entry, the sequences of proteins in these tests, tags left out. Where a name states a change or a piece, a line headed by the entry shows the natural chain unless it says otherwise. Residues count along the entry.
UniProt Q86VE9: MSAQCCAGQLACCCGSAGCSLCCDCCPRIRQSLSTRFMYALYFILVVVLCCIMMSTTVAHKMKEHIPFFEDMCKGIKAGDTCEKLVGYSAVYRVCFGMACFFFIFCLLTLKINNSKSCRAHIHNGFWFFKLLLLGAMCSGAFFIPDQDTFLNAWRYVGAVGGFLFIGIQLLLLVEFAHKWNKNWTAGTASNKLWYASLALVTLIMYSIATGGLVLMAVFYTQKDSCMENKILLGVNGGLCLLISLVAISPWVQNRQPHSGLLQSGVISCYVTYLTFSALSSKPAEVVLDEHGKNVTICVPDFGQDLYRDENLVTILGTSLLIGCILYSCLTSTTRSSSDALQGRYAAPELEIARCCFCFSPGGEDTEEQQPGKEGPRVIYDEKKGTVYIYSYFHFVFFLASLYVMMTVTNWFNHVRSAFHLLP
UniProt P78536: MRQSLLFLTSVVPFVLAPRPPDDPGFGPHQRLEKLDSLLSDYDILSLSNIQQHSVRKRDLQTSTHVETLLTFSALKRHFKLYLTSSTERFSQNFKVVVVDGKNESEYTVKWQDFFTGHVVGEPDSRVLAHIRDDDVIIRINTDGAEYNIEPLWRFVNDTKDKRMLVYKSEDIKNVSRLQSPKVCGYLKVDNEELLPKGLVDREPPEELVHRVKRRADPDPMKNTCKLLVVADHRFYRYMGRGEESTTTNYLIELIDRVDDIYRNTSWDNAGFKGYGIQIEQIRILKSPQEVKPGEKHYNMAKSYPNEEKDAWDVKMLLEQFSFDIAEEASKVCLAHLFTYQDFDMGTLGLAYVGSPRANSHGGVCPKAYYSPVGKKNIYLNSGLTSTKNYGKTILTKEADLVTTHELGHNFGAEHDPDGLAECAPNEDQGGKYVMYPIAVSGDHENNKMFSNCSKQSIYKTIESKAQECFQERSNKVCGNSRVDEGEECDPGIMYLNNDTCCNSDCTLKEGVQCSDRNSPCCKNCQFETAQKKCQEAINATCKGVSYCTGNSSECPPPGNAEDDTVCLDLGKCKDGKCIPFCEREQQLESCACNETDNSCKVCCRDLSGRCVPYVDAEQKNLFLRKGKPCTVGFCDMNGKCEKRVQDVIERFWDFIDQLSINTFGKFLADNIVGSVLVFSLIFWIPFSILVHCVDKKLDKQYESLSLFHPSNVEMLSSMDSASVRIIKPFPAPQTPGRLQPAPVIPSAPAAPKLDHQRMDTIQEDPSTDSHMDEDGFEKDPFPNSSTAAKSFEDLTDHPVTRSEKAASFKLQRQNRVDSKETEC
UniProt Q13444: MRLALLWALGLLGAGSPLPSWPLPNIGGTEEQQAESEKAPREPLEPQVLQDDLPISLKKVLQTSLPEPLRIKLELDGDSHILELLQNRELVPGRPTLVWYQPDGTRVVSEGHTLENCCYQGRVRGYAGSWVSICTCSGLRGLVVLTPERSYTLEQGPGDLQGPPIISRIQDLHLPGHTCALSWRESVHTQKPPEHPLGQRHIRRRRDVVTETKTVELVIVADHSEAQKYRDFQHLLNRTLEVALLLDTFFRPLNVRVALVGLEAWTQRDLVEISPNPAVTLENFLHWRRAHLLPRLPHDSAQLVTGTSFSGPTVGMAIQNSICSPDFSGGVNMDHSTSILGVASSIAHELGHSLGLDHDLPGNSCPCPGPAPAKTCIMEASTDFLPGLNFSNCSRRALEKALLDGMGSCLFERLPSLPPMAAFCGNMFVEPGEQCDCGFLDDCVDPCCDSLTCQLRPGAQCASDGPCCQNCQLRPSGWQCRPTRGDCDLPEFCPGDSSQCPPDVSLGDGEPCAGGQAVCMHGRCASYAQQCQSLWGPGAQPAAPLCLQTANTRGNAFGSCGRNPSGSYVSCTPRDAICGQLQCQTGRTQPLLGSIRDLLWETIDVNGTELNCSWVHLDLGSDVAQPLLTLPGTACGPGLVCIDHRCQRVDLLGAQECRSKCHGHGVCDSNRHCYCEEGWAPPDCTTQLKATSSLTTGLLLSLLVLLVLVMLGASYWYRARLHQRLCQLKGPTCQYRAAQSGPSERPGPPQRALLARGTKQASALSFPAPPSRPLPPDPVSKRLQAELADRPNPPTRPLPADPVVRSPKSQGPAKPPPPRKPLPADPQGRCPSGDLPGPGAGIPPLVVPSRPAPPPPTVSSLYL
UniProt Q13443, residues 29-819: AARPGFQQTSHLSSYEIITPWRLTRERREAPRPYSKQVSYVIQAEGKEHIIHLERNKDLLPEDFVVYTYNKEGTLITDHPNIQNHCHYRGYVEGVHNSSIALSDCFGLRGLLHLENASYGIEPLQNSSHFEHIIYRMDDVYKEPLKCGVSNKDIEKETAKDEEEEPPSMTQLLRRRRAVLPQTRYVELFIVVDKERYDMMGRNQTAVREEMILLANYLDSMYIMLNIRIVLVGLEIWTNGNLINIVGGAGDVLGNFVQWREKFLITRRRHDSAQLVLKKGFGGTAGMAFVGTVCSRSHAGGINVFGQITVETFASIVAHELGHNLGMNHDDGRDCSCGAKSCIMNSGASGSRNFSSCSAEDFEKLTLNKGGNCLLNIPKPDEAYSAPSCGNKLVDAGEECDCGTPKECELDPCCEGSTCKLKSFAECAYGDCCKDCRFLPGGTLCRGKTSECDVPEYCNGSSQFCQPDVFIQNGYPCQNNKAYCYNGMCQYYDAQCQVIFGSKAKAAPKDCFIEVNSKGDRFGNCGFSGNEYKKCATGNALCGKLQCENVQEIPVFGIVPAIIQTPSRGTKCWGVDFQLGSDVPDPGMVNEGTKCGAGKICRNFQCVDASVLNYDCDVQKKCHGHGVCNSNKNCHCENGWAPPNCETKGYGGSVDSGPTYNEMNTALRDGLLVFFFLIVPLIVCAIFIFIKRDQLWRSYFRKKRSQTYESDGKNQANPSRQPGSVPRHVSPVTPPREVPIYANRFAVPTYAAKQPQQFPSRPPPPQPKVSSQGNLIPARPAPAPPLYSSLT

Key:
[1] = target: SERINC5 with a C-terminal FLAG-VC tag (Ser5-FLAG-VC) (UniProt Q86VE9); test: split reporter; BiFC: VN-HA fusion and FLAG-VC fusion co-expressed in HeLa cells, confocal microscopy; VN-HA fusion stained with anti-HA
[2] = target: ectopically expressed ADAM17 (co-IP of Fig. S2) (human) (UniProt P78536); test: co-IP; Fig. S2, reverse: A17 or GFP precipitated, Ser5 detected
[3] = target: FLAG-tagged SERINC5 (Ser5-FLAG) (UniProt Q86VE9); test: co-IP; Ser5-FLAG expressed in HEK293T, immunoprecipitated with anti-FLAG beads; endogenous ADAM proteins detected with their specific antibodies by Western blotting

ADAM15 with a C-terminal VN-HA tag (A15-VN-HA) (from UniProt Q13444)
binding [1]: binds

FLAG-tagged SERINC5 (Ser5-FLAG) (from UniProt Q86VE9-4)
binding [2]: binds

endogenous ADAM15 (from UniProt Q13444)
binding [3]: binds

endogenous ADAM9 (from UniProt Q13443 29-819)
binding [3]: binds
